In article PMC5222588, “Binding of Myomesin to Obscurin-Like-1 at the Muscle M-Band Provides a Strategy for Isoform-Specific Mechanical Protection” (Structure(London, England:1993), 2017):
No constants are given. Whether binding was seen depends on the method and setting. Binding can be weak; no strength is given.

Sequences of proteins named here, by UniProt entry; tags and fusion partners are left off. A change or cut given only in a name is not applied to a line headed by its entry.
UniProt P52179: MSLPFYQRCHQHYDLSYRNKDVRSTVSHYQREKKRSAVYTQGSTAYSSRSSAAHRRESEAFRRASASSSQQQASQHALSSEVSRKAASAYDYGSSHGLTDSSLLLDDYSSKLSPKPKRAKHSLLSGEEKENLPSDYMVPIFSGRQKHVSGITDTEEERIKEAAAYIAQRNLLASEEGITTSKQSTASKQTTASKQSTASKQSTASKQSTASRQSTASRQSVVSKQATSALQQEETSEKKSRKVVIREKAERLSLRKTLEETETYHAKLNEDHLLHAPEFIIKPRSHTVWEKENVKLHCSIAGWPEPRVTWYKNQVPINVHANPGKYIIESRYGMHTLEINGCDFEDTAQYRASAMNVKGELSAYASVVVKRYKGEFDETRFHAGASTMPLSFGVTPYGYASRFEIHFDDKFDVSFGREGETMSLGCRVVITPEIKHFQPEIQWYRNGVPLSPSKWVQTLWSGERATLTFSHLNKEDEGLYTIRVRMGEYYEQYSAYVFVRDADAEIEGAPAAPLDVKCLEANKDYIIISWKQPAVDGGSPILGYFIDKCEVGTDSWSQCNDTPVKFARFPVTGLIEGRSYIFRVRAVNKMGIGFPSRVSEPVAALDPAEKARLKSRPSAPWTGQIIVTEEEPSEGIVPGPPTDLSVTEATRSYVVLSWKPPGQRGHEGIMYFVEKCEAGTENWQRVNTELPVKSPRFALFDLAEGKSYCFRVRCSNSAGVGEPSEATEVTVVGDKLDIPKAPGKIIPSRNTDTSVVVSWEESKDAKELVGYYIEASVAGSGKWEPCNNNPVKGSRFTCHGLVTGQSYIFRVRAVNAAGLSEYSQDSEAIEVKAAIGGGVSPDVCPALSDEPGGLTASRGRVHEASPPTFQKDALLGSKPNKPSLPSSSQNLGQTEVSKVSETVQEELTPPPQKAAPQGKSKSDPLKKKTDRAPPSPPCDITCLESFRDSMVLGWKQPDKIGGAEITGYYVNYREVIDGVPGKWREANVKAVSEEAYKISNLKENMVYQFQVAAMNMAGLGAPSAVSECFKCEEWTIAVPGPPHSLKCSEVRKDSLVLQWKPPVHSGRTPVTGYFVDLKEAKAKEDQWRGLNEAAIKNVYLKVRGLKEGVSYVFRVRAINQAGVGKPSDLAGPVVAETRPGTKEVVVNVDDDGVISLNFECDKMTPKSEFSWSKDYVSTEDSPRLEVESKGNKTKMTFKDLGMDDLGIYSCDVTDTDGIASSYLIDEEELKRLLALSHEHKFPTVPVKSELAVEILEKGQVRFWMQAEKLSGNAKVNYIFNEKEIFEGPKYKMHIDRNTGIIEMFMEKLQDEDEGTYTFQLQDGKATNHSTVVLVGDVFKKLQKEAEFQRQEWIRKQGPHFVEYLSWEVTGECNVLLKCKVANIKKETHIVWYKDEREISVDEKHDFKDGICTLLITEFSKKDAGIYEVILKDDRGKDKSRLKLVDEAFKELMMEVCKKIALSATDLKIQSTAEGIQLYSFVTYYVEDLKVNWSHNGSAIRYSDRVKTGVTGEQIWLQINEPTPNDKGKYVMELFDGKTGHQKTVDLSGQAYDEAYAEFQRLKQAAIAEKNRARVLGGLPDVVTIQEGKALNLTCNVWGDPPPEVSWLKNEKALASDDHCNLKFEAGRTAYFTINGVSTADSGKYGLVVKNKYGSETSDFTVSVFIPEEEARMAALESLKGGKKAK

Target: T1, obscurin-like-1 third immunoglobulin domain (OL3) (human) (UniProt O75147)
T1 sequence: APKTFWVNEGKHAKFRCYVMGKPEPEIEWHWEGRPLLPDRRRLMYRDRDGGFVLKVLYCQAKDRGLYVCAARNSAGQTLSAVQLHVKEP
Assay: SAXS; 0.5–4.5 mg/mL in 20 mM HEPES pH 7.5, 500 mM NaCl, 1 mM DTT; 18°C; BM29 (ESRF); both purified

- binding: binds
Substance: myomesin My4L (fourth Fn-III domain with the linker L) (from UniProt P52179) (domain or fragment)
